Results as given in the supplement of paper PMC10849652.
This is one part of the list.

Amino acid sequences for entries named in this document (tags omitted). A change or cut given only in a name is not applied to a line headed by its entry.
UniProt O75351, whole entry, looked up: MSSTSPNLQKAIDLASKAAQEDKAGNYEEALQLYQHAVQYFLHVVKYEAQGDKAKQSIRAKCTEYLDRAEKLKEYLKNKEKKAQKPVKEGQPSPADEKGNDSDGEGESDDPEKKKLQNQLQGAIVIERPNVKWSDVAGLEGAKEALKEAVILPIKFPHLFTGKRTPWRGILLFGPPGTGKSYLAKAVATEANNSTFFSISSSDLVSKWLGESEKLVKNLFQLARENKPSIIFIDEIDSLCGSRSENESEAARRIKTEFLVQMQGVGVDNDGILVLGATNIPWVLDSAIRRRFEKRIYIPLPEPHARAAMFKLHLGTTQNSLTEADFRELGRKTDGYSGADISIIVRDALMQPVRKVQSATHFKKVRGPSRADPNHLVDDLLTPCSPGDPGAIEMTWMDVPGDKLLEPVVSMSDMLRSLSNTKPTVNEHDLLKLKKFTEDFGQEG
UniProt Q9NW82: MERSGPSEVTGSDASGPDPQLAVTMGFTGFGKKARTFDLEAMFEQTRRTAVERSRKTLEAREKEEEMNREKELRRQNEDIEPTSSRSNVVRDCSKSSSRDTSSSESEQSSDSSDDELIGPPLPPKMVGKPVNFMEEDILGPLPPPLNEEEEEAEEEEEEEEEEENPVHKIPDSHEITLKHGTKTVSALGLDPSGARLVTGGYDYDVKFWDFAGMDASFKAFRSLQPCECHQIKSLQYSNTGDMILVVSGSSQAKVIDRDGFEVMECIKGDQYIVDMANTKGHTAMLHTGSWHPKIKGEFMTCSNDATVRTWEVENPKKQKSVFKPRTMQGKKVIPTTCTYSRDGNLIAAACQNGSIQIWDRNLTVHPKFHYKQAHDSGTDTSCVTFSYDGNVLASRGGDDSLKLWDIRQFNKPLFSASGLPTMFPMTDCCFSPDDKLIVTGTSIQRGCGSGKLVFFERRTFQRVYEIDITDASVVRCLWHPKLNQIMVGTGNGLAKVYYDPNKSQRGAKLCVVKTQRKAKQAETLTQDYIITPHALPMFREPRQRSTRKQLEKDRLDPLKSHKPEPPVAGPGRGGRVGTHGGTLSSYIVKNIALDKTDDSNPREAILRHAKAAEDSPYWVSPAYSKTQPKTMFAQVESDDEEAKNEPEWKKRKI
UniProt Q9NRW7: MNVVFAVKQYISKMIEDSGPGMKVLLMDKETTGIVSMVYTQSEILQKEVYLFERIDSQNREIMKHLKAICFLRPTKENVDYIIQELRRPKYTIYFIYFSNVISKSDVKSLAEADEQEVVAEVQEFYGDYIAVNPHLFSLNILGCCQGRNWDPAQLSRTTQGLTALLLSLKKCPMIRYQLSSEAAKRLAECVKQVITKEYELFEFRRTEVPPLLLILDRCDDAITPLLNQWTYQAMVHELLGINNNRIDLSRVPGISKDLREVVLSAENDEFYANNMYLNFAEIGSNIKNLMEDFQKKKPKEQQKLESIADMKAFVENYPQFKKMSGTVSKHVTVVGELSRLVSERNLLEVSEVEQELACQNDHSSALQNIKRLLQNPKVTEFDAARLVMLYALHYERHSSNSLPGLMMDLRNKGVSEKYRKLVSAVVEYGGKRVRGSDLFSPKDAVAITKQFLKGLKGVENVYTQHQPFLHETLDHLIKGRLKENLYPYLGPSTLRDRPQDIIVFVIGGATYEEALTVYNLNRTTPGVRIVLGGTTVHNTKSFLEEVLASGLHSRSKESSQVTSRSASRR
UniProt Q6UXN9, whole entry, looked up: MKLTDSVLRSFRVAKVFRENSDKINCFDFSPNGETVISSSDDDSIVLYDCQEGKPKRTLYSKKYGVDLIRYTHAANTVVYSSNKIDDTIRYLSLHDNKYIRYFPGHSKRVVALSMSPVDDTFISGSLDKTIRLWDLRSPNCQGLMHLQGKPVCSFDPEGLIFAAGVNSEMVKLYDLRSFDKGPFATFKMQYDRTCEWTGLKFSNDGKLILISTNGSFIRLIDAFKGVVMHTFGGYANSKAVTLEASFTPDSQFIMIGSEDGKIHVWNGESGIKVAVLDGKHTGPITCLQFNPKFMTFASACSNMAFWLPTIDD
UniProt Q8IWB7: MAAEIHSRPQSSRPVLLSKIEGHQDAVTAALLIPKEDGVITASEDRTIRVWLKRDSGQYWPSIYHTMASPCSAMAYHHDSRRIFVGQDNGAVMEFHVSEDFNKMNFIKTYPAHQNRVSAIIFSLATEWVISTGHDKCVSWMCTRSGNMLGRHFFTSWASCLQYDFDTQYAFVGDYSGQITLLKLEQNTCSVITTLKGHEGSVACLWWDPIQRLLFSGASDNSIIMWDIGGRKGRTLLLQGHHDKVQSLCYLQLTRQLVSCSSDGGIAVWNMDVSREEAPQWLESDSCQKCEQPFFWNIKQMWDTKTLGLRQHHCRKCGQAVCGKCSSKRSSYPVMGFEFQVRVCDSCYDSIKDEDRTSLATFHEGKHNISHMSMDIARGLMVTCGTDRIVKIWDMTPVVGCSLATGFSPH
UniProt Q9H9H4: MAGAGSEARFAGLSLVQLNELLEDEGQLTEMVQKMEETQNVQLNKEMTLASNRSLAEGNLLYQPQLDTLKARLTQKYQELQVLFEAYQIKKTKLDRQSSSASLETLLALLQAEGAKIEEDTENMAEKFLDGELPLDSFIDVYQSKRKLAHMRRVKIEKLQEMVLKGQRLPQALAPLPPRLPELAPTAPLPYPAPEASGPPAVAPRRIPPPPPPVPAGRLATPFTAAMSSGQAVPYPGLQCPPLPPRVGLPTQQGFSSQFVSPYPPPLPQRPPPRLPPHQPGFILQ
UniProt O00534: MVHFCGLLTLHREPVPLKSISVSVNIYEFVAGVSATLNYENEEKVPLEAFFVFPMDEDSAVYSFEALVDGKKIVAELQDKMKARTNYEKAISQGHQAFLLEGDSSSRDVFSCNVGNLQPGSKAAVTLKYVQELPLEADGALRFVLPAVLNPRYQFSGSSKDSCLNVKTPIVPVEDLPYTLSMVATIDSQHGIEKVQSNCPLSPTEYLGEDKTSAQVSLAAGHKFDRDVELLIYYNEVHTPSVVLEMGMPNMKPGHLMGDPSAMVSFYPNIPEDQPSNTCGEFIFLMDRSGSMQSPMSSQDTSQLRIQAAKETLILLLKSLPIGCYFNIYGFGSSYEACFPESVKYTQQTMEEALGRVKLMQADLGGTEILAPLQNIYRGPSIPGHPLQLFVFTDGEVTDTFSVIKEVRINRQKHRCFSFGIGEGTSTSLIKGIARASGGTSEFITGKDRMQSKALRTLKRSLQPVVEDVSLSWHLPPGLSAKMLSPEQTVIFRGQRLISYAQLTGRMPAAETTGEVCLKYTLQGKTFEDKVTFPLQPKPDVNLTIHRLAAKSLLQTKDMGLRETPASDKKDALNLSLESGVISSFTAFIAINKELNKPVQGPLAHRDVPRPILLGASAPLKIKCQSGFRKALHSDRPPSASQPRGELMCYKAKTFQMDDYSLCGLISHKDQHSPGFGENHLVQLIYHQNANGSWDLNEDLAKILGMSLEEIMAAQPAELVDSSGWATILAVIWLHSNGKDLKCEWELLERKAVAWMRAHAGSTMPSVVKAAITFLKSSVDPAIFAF
UniProt O00401, whole entry, looked up: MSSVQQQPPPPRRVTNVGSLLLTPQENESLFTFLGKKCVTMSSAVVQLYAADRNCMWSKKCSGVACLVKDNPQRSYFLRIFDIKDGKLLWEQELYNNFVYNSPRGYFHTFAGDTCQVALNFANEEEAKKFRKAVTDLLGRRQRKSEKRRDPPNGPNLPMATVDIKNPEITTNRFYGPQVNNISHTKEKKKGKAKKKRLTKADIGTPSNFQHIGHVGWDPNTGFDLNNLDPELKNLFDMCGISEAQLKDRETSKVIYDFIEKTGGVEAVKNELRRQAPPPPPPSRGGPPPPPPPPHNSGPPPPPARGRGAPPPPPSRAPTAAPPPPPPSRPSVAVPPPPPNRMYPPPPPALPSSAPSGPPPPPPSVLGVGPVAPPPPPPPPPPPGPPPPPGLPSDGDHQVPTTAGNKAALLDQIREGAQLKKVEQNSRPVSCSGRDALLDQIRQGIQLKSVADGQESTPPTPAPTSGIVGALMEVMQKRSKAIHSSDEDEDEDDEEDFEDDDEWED
UniProt Q6P4I2: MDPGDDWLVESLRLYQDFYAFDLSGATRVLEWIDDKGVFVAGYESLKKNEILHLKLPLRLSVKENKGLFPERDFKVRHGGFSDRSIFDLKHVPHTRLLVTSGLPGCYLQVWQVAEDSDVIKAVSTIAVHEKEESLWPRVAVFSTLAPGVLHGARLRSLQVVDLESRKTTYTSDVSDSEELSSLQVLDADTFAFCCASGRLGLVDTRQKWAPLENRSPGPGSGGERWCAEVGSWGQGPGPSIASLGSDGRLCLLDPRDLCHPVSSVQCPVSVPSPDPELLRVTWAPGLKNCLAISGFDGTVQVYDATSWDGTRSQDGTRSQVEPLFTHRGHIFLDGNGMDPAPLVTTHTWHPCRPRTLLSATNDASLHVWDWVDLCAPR
UniProt Q2M389: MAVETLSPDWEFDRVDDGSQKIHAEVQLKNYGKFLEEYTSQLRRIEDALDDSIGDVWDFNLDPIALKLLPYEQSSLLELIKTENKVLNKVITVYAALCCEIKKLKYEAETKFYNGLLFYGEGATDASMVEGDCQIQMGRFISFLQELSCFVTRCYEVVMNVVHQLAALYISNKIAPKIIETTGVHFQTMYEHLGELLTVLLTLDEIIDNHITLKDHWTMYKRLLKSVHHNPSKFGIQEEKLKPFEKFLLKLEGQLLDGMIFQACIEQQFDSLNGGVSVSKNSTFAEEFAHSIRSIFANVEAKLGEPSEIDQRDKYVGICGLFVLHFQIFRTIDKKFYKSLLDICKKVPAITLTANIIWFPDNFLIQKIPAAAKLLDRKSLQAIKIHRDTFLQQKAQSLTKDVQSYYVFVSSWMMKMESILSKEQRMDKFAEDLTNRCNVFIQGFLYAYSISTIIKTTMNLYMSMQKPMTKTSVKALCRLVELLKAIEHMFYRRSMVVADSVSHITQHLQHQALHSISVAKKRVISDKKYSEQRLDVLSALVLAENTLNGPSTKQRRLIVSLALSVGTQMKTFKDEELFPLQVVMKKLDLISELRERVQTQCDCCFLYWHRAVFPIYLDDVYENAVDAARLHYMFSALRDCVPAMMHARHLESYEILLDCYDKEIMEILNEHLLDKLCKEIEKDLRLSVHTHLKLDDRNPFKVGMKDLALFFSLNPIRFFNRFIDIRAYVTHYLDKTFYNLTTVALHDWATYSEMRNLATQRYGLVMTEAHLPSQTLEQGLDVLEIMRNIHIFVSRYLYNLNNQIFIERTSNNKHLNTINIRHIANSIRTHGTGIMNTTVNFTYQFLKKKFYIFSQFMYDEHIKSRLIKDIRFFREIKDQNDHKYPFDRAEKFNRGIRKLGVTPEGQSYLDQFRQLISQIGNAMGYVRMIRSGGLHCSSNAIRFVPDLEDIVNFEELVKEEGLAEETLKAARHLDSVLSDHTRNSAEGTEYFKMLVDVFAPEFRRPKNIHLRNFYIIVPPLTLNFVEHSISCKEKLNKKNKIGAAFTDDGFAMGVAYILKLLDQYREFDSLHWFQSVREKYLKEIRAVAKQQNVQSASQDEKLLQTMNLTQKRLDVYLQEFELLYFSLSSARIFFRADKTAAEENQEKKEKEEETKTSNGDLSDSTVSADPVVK
UniProt Q9Y484: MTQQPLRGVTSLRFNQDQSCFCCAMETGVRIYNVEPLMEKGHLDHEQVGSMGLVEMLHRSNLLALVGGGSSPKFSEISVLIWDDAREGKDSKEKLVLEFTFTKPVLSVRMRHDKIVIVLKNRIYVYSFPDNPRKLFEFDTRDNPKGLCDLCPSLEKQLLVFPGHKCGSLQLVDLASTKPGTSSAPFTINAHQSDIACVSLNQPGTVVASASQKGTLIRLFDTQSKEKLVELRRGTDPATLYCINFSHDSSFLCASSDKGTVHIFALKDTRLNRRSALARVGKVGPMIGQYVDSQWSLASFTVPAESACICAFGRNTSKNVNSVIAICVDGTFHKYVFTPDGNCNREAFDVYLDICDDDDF
UniProt Q9BQA1, whole entry, looked up: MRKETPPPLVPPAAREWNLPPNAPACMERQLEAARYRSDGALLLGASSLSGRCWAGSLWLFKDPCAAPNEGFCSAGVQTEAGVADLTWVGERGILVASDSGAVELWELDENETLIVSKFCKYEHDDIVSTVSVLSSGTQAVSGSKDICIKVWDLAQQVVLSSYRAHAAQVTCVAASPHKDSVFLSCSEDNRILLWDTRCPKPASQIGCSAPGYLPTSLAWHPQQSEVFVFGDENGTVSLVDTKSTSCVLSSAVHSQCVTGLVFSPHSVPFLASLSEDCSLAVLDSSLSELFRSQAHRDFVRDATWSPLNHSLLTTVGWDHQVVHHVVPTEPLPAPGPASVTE
UniProt Q4G0F5, whole entry, looked up: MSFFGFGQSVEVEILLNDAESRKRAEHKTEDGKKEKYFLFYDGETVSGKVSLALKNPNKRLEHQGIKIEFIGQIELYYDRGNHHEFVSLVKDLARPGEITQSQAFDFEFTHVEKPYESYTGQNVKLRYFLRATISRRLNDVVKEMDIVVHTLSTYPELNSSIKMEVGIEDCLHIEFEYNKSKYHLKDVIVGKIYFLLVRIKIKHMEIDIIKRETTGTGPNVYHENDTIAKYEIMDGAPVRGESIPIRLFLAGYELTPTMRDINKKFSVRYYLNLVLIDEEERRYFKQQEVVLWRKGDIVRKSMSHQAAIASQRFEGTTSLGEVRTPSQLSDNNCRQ

compound: C1CN(CCC1(CC2=CC=C(C=C2)Cl)N)C3=NC=NC4=C3C=CN4; test: log2 fold change, soluble protein after heating vs DMSO (PISA); higher = thermal stabilisation; K562 cells, 10 uM, 30 min; active = over 0.2 and 3.5 SD of the protein, either way, in both replicates (recomputed)
Method in brief: (§1)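 K562 cells at 2×10^6 cells/mL were treated with 10 μM compound for 30 min. Aliquots were heated for 3 min across 48°C-58°C, pooled, and extracted in PBS with 0.5% NP-40 at 4°C; soluble protein was the supernatant after 21,000xg for 90 min. Soluble protein was quantified by TMTpro 16plex LC-MS/MS with channel sums equalised, and reported as log2 fold change in thermal stability against DMSO controls, with values from duplicates.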

log2 fold change, inactive:
WDR5 (UniProt P61964) -0.028
WDR6 (UniProt Q9NNW5) -0.01
WDR13 (UniProt Q9H1Z4) 0.033
VPS4B (UniProt O75351) -0.004
WDR74 (UniProt Q6RFH5) -0.135
WDR36 (UniProt Q8NI36) 0.051
VPS13C (UniProt Q709C8) 0.02
WIPF2 (UniProt Q8TF74) 0.079
VPS36 (UniProt Q86VN1) 0.053
WDR70 (UniProt Q9NW82) -0.01
VPS26A (UniProt O75436) 0.037
VPS29 isoform 2 (UniProt Q9UBQ0) 0.046
WBP11 (UniProt Q9Y2W2) 0.027
WDR26, A0A499FIZ0 -0.058
VPS45 (UniProt Q9NRW7) -0.012
WDR82 (UniProt Q6UXN9) -0.065
WDFY1 (UniProt Q8IWB7) 0.083
VPS37B (UniProt Q9H9H4) -0.09
VWDE (UniProt Q8N2E2) 0.008
VWA5A (UniProt O00534) -0.021
VPS13A (UniProt Q96RL7) 0.051
WASL (UniProt O00401) -0.036
WDR73 (UniProt Q6P4I2) 0.039
WASHC4 (UniProt Q2M389) -0.076
VPS35 (UniProt Q96QK1) 0.058
WDR45 (UniProt Q9Y484) 0.028
VPS4A (UniProt Q9UN37) -0.028
WASF2 (UniProt Q9Y6W5) 0.036
WRAP53 (UniProt Q9BUR4) -0.043
WDR77 (UniProt Q9BQA1) 0.011
WIPF3 (UniProt A6NGB9) 0.025
WASF1 (UniProt Q92558) 0.049
VPS26B (UniProt Q4G0F5) 0.082

compound: C1COCCN1CCN2C3=CC=CC=C3N=C2NC(=O)C4=CC(=CC=C4)[N+](=O)[O-] [IRAK-1-4 Inhibitor I]; test: as above
Method in brief: as §1

log2 fold change, inactive:
WDR5 (UniProt P61964) -0.072
WDR6 (UniProt Q9NNW5) -0.038
WDR13 (UniProt Q9H1Z4) -0.053
VPS4B (UniProt O75351) 0.046
WDR74 (UniProt Q6RFH5) -0.125
WDR36 (UniProt Q8NI36) -0.046
VPS13C (UniProt Q709C8) 0.006
WIPF2 (UniProt Q8TF74) 0.058
VPS36 (UniProt Q86VN1) -0.037
WDR70 (UniProt Q9NW82) 0.033
VPS26A (UniProt O75436) 0.014
VPS29 isoform 2 (UniProt Q9UBQ0) 0.057
WBP11 (UniProt Q9Y2W2) -0.002
WDR26, A0A499FIZ0 -0.017
VPS45 (UniProt Q9NRW7) -0.007
WDR82 (UniProt Q6UXN9) -0.094
WDFY1 (UniProt Q8IWB7) 0.053
VPS37B (UniProt Q9H9H4) 0.057
VWDE (UniProt Q8N2E2) -0.052
VWA5A (UniProt O00534) 0.128
VPS13A (UniProt Q96RL7) 0.057
WASL (UniProt O00401) 0.004
WDR73 (UniProt Q6P4I2) 0
WASHC4 (UniProt Q2M389) -0.084
VPS35 (UniProt Q96QK1) 0.059
WDR45 (UniProt Q9Y484) 0.03
VPS4A (UniProt Q9UN37) -0.01
WASF2 (UniProt Q9Y6W5) 0.034
WRAP53 (UniProt Q9BUR4) 0.008
WDR77 (UniProt Q9BQA1) -0.011
WIPF3 (UniProt A6NGB9) 0.064
WASF1 (UniProt Q92558) 0.022
VPS26B (UniProt Q4G0F5) 0.07

compound: C=CC(=O)N1CCC[C@@H](n2nc(-c3ccc(Oc4ccccc4)cc3)c3c(N)ncnc32)C1 [ibrutinib]; test: as above
Method in brief: as §1

log2 fold change, inactive:
WDR5 (UniProt P61964) 0.022
WDR6 (UniProt Q9NNW5) 0.016
WDR13 (UniProt Q9H1Z4) -0.023
VPS4B (UniProt O75351) 0.007
WDR74 (UniProt Q6RFH5) 0.04
WDR36 (UniProt Q8NI36) -0.036
VPS13C (UniProt Q709C8) -0.024
WIPF2 (UniProt Q8TF74) 0.005
VPS36 (UniProt Q86VN1) -0.015
WDR70 (UniProt Q9NW82) -0.009
VPS26A (UniProt O75436) -0.028
VPS29 isoform 2 (UniProt Q9UBQ0) -0.011
WBP11 (UniProt Q9Y2W2) 0.036
WDR26, A0A499FIZ0 -0.014
VPS45 (UniProt Q9NRW7) 0.115
WDR82 (UniProt Q6UXN9) -0.018
WDFY1 (UniProt Q8IWB7) -0.022
VPS37B (UniProt Q9H9H4) 0
VWDE (UniProt Q8N2E2) -0.02
VWA5A (UniProt O00534) -0.005
VPS13A (UniProt Q96RL7) -0.024
WASL (UniProt O00401) 0.025
WDR73 (UniProt Q6P4I2) 0.006
WASHC4 (UniProt Q2M389) -0.055
VPS35 (UniProt Q96QK1) -0.009
WDR45 (UniProt Q9Y484) -0.018
VPS4A (UniProt Q9UN37) -0.017
WASF2 (UniProt Q9Y6W5) -0.025
WRAP53 (UniProt Q9BUR4) 0.033
WDR77 (UniProt Q9BQA1) 0.037
WIPF3 (UniProt A6NGB9) -0.051
WASF1 (UniProt Q92558) 0
VPS26B (UniProt Q4G0F5) -0.03
